# According to PubChem BioAssay AID504467 (National Center for Advancing Translational Sciences (NCATS), 2011):
# Among all 330,000 compounds or so, about 7,700 (2.3%) were called active. Inconclusive results, whose numbers are uncertain, are shown with a selection of clear calls. Calls follow the shape of the dose curve; as a rule, active = well fitted inhibition curve with a large enough effect; inconclusive = small, poorly fitted or top-dose-only effect, or effect the other way; inactive = flat fitted curve, though single readings scatter. Potencies beside an inconclusive call are fits to weak or partial responses and may not hold up.
# Assay: qHTS screen for small molecules that inhibit ELG1-dependent DNA repair in human embryonic kidney (HEK293T) cells expressing luciferase-tagged ELG1; also: nearly all actives have a fitted effect of over 55% in size
# Settings: HEK293T ELG1-luciferase reporter, luminescence, 16 h, DNA damage induced by 5-fluorouridine; activity change, negative = inhibition: at 46.1 µM (top of the series)
# Text: NIH Molecular Libraries Probe Production Network [MLPCN] NIH Chemical Genomics Center [NCGC] MLPCN Grant: 1 R03 MH092164-01 Assay Provider: Kyungjae Myung, NHGRI, NIH Keywords: MLPCN, qHTS, NCGC, genotoxicity, cancer Assay Overview: Cancer cells divide rapidly compared to normal cells in the body. During cell division, cancer cells need to duplicate their genome by DNA replication. The failure of genome duplication leads to cancer cells' death. Therefore, inhibitors of DNA replication could specifically kill cancer cells. Based on this concept, many chemotherapeutic agents were developed and have been used to treat cancer patients. However, there are a limited number of agents available in the clinical setting, and some of those that do exist have low efficacy and severe side effects. Therefore, if we can find the compounds that effectively block DNA replication either by directly damaging DNA or by inhibiting other cellular mechanisms, the options for cancer treatment will be broadened. With this in mind, we developed a quantitative high-throughput ELG1-luciferase reporter gene assay. Small molecules that specifically block ELG1 function in response to DNA damage can be identified by monitoring the suppression of luciferase activity. Since ELG1 defines a pathway for repairing DNA damage, agents blocking ELG1 function can be used to sensitize cancer cells to chemotherapeutic agents whose mechanism of action involves the induction of DNA damage.
# Assay Protocol Summary: For genotoxicity screening, 2,000 cells in 4 uL/well were dispensed into white, solid-bottom 1536-well plates using a solenoid-based dispenser. Following transfer of 1 uL 5-Fluorouridine and 23 nL compound or DMSO vehicle by a pin tool, the plates were incubated 16 hr at 37 °C and 5% CO2. 5 ul ONE-Glo (Promega) was then added to each plate and following a 30 min incubation at room temperature, luciferase activity was quantified on a ViewLux CCD-based plate reader.
# % is scaled to controls: 0 for no effect and ±100 for the full control effect; potency is read from the fitted curve at half-maximal effect.
Compound,Potency,"activity change, negative = inhibition"
O=C(Cn1c(=O)oc2cc(S(=O)(=O)N3CCOCC3)ccc21)N1CCc2ccccc2C1,"inconclusive: 32.6 µM [activator, partial curve, poor fit]",
COc1ccc([C@H]2CC(=O)C=C(c3ccc(Cl)c(C(F)(F)F)c3)C2)cc1,,inactive: 5.59%
C/C(=N\NC(=S)NCc1ccccc1)c1ccc2c(c1)OCCO2,"inconclusive: 18.3 µM [inhibitor, single point]",
O=C(CN1CCCCC1)Nc1cc(Cl)ccc1Oc1ccccc1,"inconclusive: 7.3 µM [inhibitor, partial curve, poor fit]",
CS(=O)(=O)N(CC(=O)NCc1ccncc1)c1cc(Cl)ccc1Cl,,inactive: 0.434%
Cc1c(NC(=O)c2cccc(-c3cc4ccccc4oc3=O)c2)cccc1-c1nc2ncccc2o1,active: 13 µM,
CC1CCN(c2ccc(-c3ccc(NC(=O)C(F)(F)F)cc3)nn2)CC1,"inconclusive: 2.31 µM [activator, partial curve]",
C=CCn1c(CCSCc2ccccc2)n[nH]c1=S,,inactive: -10.2%
COc1ccc(OCC(=O)N(Cc2sccc2C)C2CCS(=O)(=O)C2)cc1 (configuration not stated),,inactive: -0.811%
CCS(=O)(=O)Nc1cccc(C2=NN(S(=O)(=O)CC)C(c3cccs3)C2)c1 (configuration not stated),,inactive: -8.31%
CCSc1nnc(NC(=O)COc2ccccc2[N+](=O)[O-])s1,"inconclusive: 18.3 µM [activator, partial curve]",
CNC(=O)NC(=O)C(C)Oc1ccccc1F (configuration not stated),,inactive: -10.1%
CCCn1cnc2c(sc3nc4c(cc32)CSC(C)(C)C4)c1=O,"inconclusive: 4.61 µM [activator, partial curve]",
C=C1CCC[C@]2(C)C[C@H]3OC(=O)C(CNCCN(CC)CC)[C@H]3CC12 (some centres not stated),,inactive: 13.7%
Cc1onc(-c2ccccc2)c1C(=O)N/N=C/c1c[nH]c2ccccc12,"inconclusive: 23.1 µM [inhibitor, single point]",
O=C(COC(=O)c1ccccc1Br)NCCc1ccc(F)cc1,"inconclusive: 29.1 µM [activator, single point]",
CCOC(=O)c1[nH]cnc1C(=O)Nc1ccccn1,"inconclusive: 23.1 µM [activator, partial curve, poor fit]",
CSCCC(NC(=O)c1ccco1)C(=O)Nc1ccc(C)cn1 (configuration not stated),"inconclusive: 9.2 µM [activator, partial curve, poor fit]",
COCCNC(=O)CN1C(=O)NC2(CCCc3ccccc32)C1=O (configuration not stated),,inactive: -16.5%
CC(NC(=O)CS(=O)(=O)c1ccccc1)c1ccccc1 (configuration not stated),,inactive: -3.62%
CC1(c2nnc(-c3ccncc3)o2)CC(c2c(Cl)cccc2Cl)=NO1 (configuration not stated),"inconclusive: 18.3 µM [inhibitor, single point]",
COc1ccc(Cc2noc(CN(C)CCc3ccccc3)n2)cc1OC,"inconclusive: 16.4 µM [inhibitor, single point]",
COc1ccc(-n2nnnc2SCC(=O)Nc2ccccc2N2CCOCC2)cc1,"inconclusive: 23.1 µM [inhibitor, partial curve, poor fit]",
COc1ccccc1CNC(=O)C1CCN(S(=O)(=O)c2ccc3c(c2)NC(=O)CO3)CC1,,inactive: 11.8%

Compound,Potency,"activity change, negative = inhibition"
CC(C(=O)NCCS(=O)(=O)c1ccc(Cl)cc1)S(=O)(=O)c1ccc(Cl)cc1 (configuration not stated),,inactive: -13.7%
CCn1c(=O)n(CC)c2cc(N3CCCC3)c(NC(=O)c3ccccc3)cc21,"inconclusive: 23.1 µM [inhibitor, single point]",
CN(C)CCN(C(=O)c1ccc(C(=O)c2ccccc2)cc1)c1nc2cc3c(cc2s1)OCCO3,"inconclusive: 25.9 µM [activator, partial curve]",
S=C(c1ccc(-c2ccccc2)cc1)N1CCOCC1,,inactive: -14.7%
O=C(Cc1cccs1)Nc1ccc(-c2nc3ccccc3[nH]2)cc1,"inconclusive: 5.17 µM [activator, partial curve]",
CNC1(c2nnnn2-c2ccccc2C)CCOC(C)(C)C1 (configuration not stated),"inconclusive: 29.1 µM [activator, single point]",
Cc1ccc(CNS(=O)(=O)c2ccc(CN3C(=O)c4cccnc4C3=O)cc2)o1,,inactive: 22%
COC(=O)c1sccc1-c1ccc(C(=O)Nc2cccnc2)o1,"inconclusive: 6.31 µM [activator, single point]",
O=C(CCc1nnc(-c2ccc(-c3ccccc3)cc2)o1)NCCc1ccccn1,"inconclusive: 8.2 µM [activator, partial curve]",
NS(=O)(=O)c1ccc(CCNC(=O)c2ccccc2Cc2ccccc2)cc1,,inactive: -5.63%
Cc1ccc(/C=N/n2c(COc3ccccc3)n[nH]c2=S)s1,,inactive: -0.841%
O=C(Nc1nccs1)c1sc2cc(Cl)ccc2c1Cl,"inconclusive: 11.6 µM [activator, partial curve]",
CC(=O)n1cc(/C=N/NC(=O)c2cccc(O)c2)c2ccccc21,"inconclusive: 25.9 µM [activator, partial curve]",
CCOc1ccc(NC(=O)Nc2cnccn2)cc1,"inconclusive: 7.3 µM [activator, partial curve]",
O=C(N/N=C/c1c(Cl)cccc1Cl)c1cccc(F)c1,"inconclusive: 23.1 µM [activator, single point]",
OC(CNCc1ccccc1)Cn1ccc2ccccc21 (configuration not stated),,inactive: -7.03%
Oc1ccccc1C1CCCCC1c1ccccc1 (configuration not stated),,inactive: 16.5%
COc1ccc(C)cc1NCc1ccc([N+](=O)[O-])cc1,"inconclusive: 1 µM [inhibitor, partial curve, poor fit]",
O=C(COC(=O)c1cnccn1)c1ccc2c(c1)CCCC2,"inconclusive: 29.1 µM [activator, single point]",
Cc1ccc2nc(N(CCCN(C)C)C(=O)c3ccc4ncsc4c3)sc2c1,"inconclusive: 9.2 µM [activator, partial curve]",
O=C(O)c1ccc(N/N=C/c2cn(Cc3ccccc3F)c3ccccc23)cc1,"inconclusive: 4.61 µM [activator, partial curve]",
COc1ccccc1NC1=C(Cl)C(=O)OC1OC(=O)c1ccco1 (configuration not stated),,inactive: -4.66%
Cc1ccc(NC(=O)CSc2nc3ccccc3c(=O)n2Cc2cccs2)cc1,"inconclusive: 13 µM [activator, partial curve, poor fit]",

# Among those listed so far, 2 contain a CF3 group:
Compound,Potency,"activity change, negative = inhibition"
COc1ccc([C@H]2CC(=O)C=C(c3ccc(Cl)c(C(F)(F)F)c3)C2)cc1,,inactive: 5.59%
CC1CCN(c2ccc(-c3ccc(NC(=O)C(F)(F)F)cc3)nn2)CC1,"inconclusive: 2.31 µM [activator, partial curve]",
